According to PubChem BioAssay AID1347075 (National Center for Advancing Translational Sciences (NCATS), 2019):
Where “and” joins values, the source holds several entries; their conditions need not be identical. Identical values can stand only once. Hit rate of the full screen: of about 400,000 compounds, about 5,500 (1.4%) were called active. Inconclusive results, whose numbers are uncertain, are shown with a selection of clear calls. Calls follow the shape of the dose curve; as a rule, active = well fitted cell-killing curve with a large enough effect; inconclusive = small, poorly fitted or top-dose-only effect, or effect the other way; inactive = flat fitted curve, though single readings scatter. Where the call is inconclusive, the potency comes from a doubtful curve fit.

Experiment: qHTS assay for MDR1-selective chemotherapeutics: Primary screen using the parental adenocarcinoma cell KB-3-1; also: nearly all actives have a fitted effect of over 60% in size
Conditions: KB-3-1 viability, CellTiter-Glo ATP luminescence, 72 h; activity change, negative = cytotoxic: at 46.1 µM (top of the series)
In short: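 Here the drug-naive KB-3-1 line serves as comparator for MDR sub-line selectivity; cells received compound titrations, 72 h at 37 °C, then CellTiter-Glo readout.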
% is scaled to controls: 0 for no effect and ±100 for the full control effect; potency is read from the fitted curve at half-maximal effect.

| SMILES | Potency | activity change, negative = cytotoxic |
| --- | --- | --- |
| O=C(c1cc(C2CC2)nn1-c1ccccc1)N1CCN(S(=O)(=O)c2c(F)cccc2F)CC1 | inconclusive: 29.1 µM [cytotoxic, single point] |  |
| O=C(N/N=C/c1ccc([N+](=O)[O-])o1)c1cc(-c2cccc(Br)c2)nc2ccccc12 | inconclusive: 31.6 µM [cytotoxic, single point] |  |
| O=C(O)CCCCCN1C(=O)/C(=C\c2cn(-c3ccccc3)nc2-c2cccs2)SC1=S | inconclusive: 6.51 µM [cytotoxic, full curve, poor fit] |  |
| COc1cccc(N(C(=O)CCl)C(C(=O)NCCc2ccccc2)c2cccs2)c1 (stereo not given) | inconclusive: 18.4 µM [cytotoxic, single point] |  |
| CCCCN(C)C(=O)c1sc(=O)n(Cc2c(C)cccc2C)c1C |  | inconclusive: -47.3% |
| Cc1nc(-c2ccc(-n3nncc3-c3ccco3)cc2)cs1 |  | inactive: -17.6% |
| CCN(CC)S(=O)(=O)c1ccc(O)c(C(=O)OCC(=O)N2CCCc3ccccc32)c1 |  | inactive: 9.07% |
| Cc1cc(C)c(C)c(S(=O)(=O)Nc2ccccc2C(=O)NCCCN2CCOCC2)c1C |  | inactive: 4.21% |
| CCC(C)c1ccc(NC(=O)Nc2cccnc2)cc1 (stereo not given) |  | inconclusive: 35.5% |
| COc1cccc(F)c1C(C[N+](=O)[O-])c1c(N)n(C)c(=O)n(C)c1=O (stereo not given) | inconclusive: 29.1 µM [cytotoxic, single point] |  |
| N=c1n(Cc2ccccc2)c2ccccc2n1CC(O)c1ccccc1 (stereo not given) | inconclusive: 16.4 µM [cytotoxic, single point] |  |
| C=CCNC(=O)N1C2=NC(C(=O)OC)=C(C(=O)OC)[C@@H]3N(Cc4ccccc4)c4ccccc4[C@]23C[C@H]1C(=O)OC | inconclusive: 32.6 µM [cytotoxic, single point] |  |
| Cc1ccc(Sc2c(C=O)c3ccccc3n2C)cc1 | active: 23.1 µM |  |
| CN(CCCNC(=O)C1CCN(S(=O)(=O)c2cccc3nsnc23)CC1)Cc1ccccc1 |  | inactive: 0.838% |
| O=C(CSc1nnc(-c2ccco2)n1Cc1ccco1)N1CCOCC1 |  | inactive: 12.6% |
| CC1CCc2nc(N)c(C#N)c(-c3ccncc3)c2C1 (stereo not given) |  | inactive: -2.14% |
| Cc1ccc(S(=O)(=O)NC2CC3CCC2C3)cc1 (stereo not given) | inconclusive: 0.0065 µM [rising, full curve] |  |
| Cc1ccc(-c2nc3cc(C)c(Br)c(C)n3c2CC2CCCCC2)cc1 | inconclusive: 18.4 µM [cytotoxic, single point] |  |
| C=CCOc1ccc(C2/C(=C(\O)c3ccc4c(c3)OCCO4)C(=O)C(=O)N2CCCN2CCOCC2)cc1 (stereo not given) |  | inactive: 27% |
| COc1cc2oc(-c3ccc(O)cc3)cc(=O)c2c(O)c1OC | inconclusive: 23.1 µM [cytotoxic, partial curve, poor fit] |  |
| Cc1noc(C)c1COc1ccc(C(=O)NNC(=O)c2ccccc2F)cc1 | inconclusive: 10.3 µM [cytotoxic, partial curve, poor fit] |  |
| COc1cc(Nc2nc(-c3ccccc3)c3cc(C)ccc3n2)cc(OC)c1OC | inconclusive: 29.1 µM [cytotoxic, single point] |  |
| Cc1ccccc1OCC1Cn2c(nc3c2c(=O)n(C)c(=O)n3C)O1 (stereo not given) |  | inconclusive: -22.2% |
| COc1ccc(C(=O)/C=C/c2ccc(N3CCCCC3)c([N+](=O)[O-])c2)cc1 | inconclusive: 18.4 µM [cytotoxic, single point] |  |

| SMILES | Potency | activity change, negative = cytotoxic |
| --- | --- | --- |
| COc1ccc(-c2ccc3c(c2)S(=O)(=O)c2cccc(C(=O)NCCOc4ccccc4Cl)c2C3=O)cc1OC | inconclusive: 8.2 µM [cytotoxic, partial curve] |  |
| COc1ccc(CN(C(=O)c2ccc(-c3ccccc3)[nH]2)C(C(=O)NC(C)(C)C)c2ccncc2)cc1 (stereo not given) | inconclusive: 29.1 µM [cytotoxic, single point] |  |
| NNC(=O)c1csc(Cc2c(Cl)sc3ccc(Cl)cc23)n1 |  | inactive: -6.17% |
| CCC(C)Sc1cc(-c2nc3ccc(Cl)cn3c2NC2CCCCC2)ccc1OC (stereo not given) | inconclusive: 23.1 µM [cytotoxic, single point] and inconclusive: 20.6 µM [cytotoxic, single point] |  |
| COc1ccc2nc(N(CCN(C)C)C(=O)/C=C/c3cccs3)sc2c1 | inconclusive: 29.1 µM [cytotoxic, single point] |  |
| O=C(N/N=C/c1cc([N+](=O)[O-])ccc1O)C1CC1 | inconclusive: 25.9 µM [cytotoxic, single point] |  |
| Cc1ccccc1NC(=O)c1ccccc1O |  | inconclusive: -13% |
| Cc1ccc(C2CCN(C(=O)c3cnn(-c4ccccc4Cl)c3C3CCN(C(=O)OC(C)(C)C)CC3)C2)cc1 (stereo not given) | inconclusive: 29.1 µM [cytotoxic, single point] |  |
| CCCOC(=O)c1c(NC(=O)c2nc3ncccn3n2)sc(C(=O)OCC)c1C | inconclusive: 20.6 µM [rising, partial curve, poor fit] |  |
| Cc1ccc(C[n+]2cc(-c3ccc(Cl)cc3)n3c2CCC3)cc1 | active: 6.51 µM |  |
| Cc1ccc(C)c(N(CC(=O)Nc2cc(Cl)ccc2Oc2ccccc2)S(C)(=O)=O)c1 | inconclusive: 29.1 µM [cytotoxic, single point] |  |
| COC(=O)CC1(C(=O)OC)Oc2ccc(Br)cc2C(=O)N1c1ccc(Br)cc1Cl (stereo not given) | inconclusive: 29.1 µM [cytotoxic, single point] |  |
| COc1cccc(OC)c1-c1nn2c(-c3ccco3)nnc2s1 |  | inactive: 14.2% |
| CCN(CC)c1nc(Nc2ccccc2)nc(Oc2ccc(=O)n(C)n2)n1 | inconclusive: 16.4 µM [cytotoxic, single point] |  |
| CCC(C)Sc1ccc([C@H]2N[C@@](CC(C)C)(C(=O)OC)[C@H]3C(=O)N(C)C(=O)[C@@H]23)cc1 (stereo not given in full) | inconclusive: 20.6 µM [cytotoxic, single point] |  |
| CC/C(=C\C1CCCCC1)C(NP(=O)(c1ccccc1)c1ccccc1)c1ccccc1 (stereo not given) | inconclusive: 18.4 µM [cytotoxic, single point] |  |
| CN(CCO)c1ccc(C=NNc2ccc([N+](=O)[O-])cc2S(=O)(=O)Nc2ccccc2C(=O)O)cc1 | inconclusive: 20.6 µM [cytotoxic, partial curve, poor fit] |  |
| O=C(NC(NC1CCS(=O)(=O)C1)C(=O)c1ccccc1)c1ccc(Cl)cc1 (stereo not given) |  | inactive: 10.6% |
| Cc1ccc(NC(=O)C2CCCN(S(=O)(=O)c3cccc4cccnc34)C2)cc1Cl (stereo not given) |  | inactive: 0.252% |
| CCc1ccccc1NC(=O)CSc1nnc(-c2cc(OC)c(OC)c(OC)c2)o1 |  | inactive: -7.72% |
| COc1ccc(N2CCN(CC(O)COc3ccccc3C(C)(C)C)CC2)cc1 (stereo not given) |  | inactive: -4.04% |
| CCN(c1ccc(OC)cc1)S(=O)(=O)c1c(C(=O)N2CCCCCC2)c(C)n(C)c1C |  | inactive: -5.85% |
| Cc1cc(C)c2[nH]c(=O)c(CN(Cc3cccs3)C(=S)NCc3ccco3)cc2c1 |  | inactive: 0% |
| N#C/C(=C/c1ccccc1)C(=O)NCc1ccccc1 |  | inactive: 10.4% |

| SMILES | Potency | activity change, negative = cytotoxic |
| --- | --- | --- |
| COc1ccc(CN2C(=O)c3cccnc3C2=O)cc1S(=O)(=O)NC1CCCCC1C (stereo not given) |  | inactive: 1.92% |
| COc1ccc(-c2cc(C(=O)NCCc3ccccc3)no2)cc1OC |  | inactive: -16% |
| CC(C)N(C)c1ncnc2c1ncn2[C@H]1CN(C2CCCC2)C[C@@H](CO)O1 |  | inactive: 18.5% |
| CN(C)c1ccc(C=c2c3cc(O)ccc3n3c2cc(-c2ccccc2)[n+]3C)cc1 | inconclusive: 6.51 µM [cytotoxic, full curve, poor fit] |  |
| CSc1nn2c(C(F)(F)F)cc(C(F)(F)F)nc2c1C(N)=O |  | inactive: -1.06% |
| CS(=O)(=O)N(CC(=O)N1CCCC1)c1cccc(C(F)(F)F)c1 |  | inactive: -1.85% |
| CC1CCc2nc(NC(=O)CSc3nc4ccccc4o3)sc2C1 (stereo not given) | inconclusive: 29.1 µM [cytotoxic, single point] |  |
| COc1cc(NC(=O)COc2ccc(-n3ccnc3)cc2)cc(OC)c1 | inconclusive: 29.1 µM [cytotoxic, single point] |  |
| O=C(Nc1ccc(C(=O)N2CCOCC2)cc1)c1cc(-c2cccnc2)nc2ccc(Cl)cc12 |  | inconclusive: -21.5% |
| CC(=O)Nc1ccc(SCC(=O)Nc2ccc3c(c2)OCCO3)cc1 |  | inactive: 5.02% |
| CC(=O)Nc1ccc(NC2=C/C(=N/S(=O)(=O)c3cccs3)c3ccccc3C2=O)cc1 | active: 20.6 µM |  |
| CC(=O)C1=C(C)N(Cc2ccco2)C(=O)C1(NC(=O)C1CCCCC1)C(F)(F)F (stereo not given) |  | inactive: -0.423% |
| COc1ccc(OC)c(CCNC(=O)c2cc3c(-c4ccccc4F)nn(C)c3s2)c1 | inconclusive: 20.6 µM [cytotoxic, partial curve, poor fit] |  |
| COC(=O)c1sc(-c2ccc(Cl)cc2)cc1NC(=O)/C=C/C(=O)O | inconclusive: 29.1 µM [cytotoxic, single point] |  |
| O=C(O)COC(=O)Cc1ccccc1Nc1c(Cl)cccc1Cl |  | inactive: 0% |
| O=C1N[C@@H](c2ccccc2)COC(=O)[C@H](Cc2ccc(F)cc2)CC/C=C/C[C@@H]1CC(=O)N(CCO)Cc1ccccc1 | inconclusive: 29.1 µM [cytotoxic, single point] |  |
| O=C(OC(C(=O)N1CCOCC1)c1ccccc1)c1c2c(nc3ccccc13)CCCC2 (stereo not given) |  | inactive: 1.41% |
| Cc1ccc(C)c(N2CCN(C(=O)CCS(=O)(=O)c3cccc4nonc34)CC2)c1 |  | inactive: -2.3% |
| Cc1ccc(S(=O)(=O)/N=C(/Nc2ccc([N+](=O)[O-])cc2)c2ccccc2)cc1 | inconclusive: 20.6 µM [cytotoxic, single point] |  |
| CC1(C)OC(=O)C2=C(C[C@@H](C3CCCCC3)O[C@H]2c2ccc(Cl)cc2)O1 |  | inactive: -0.536% |
| Cn1c(NC(=O)c2ccccc2)nc2ccccc21 | inconclusive: 18.4 µM [cytotoxic, single point] |  |
| O=C1/C(=C\c2cc([N+](=O)[O-])ccc2O)SC(=S)N1Cc1ccc(Cl)cc1 | inconclusive: 20.6 µM [cytotoxic, single point] |  |
